# Reference: the supplement of paper PMC10470496
# Counter-ions that a name gives are not always drawn. The list shows a part of the results. Repeats are few or missing, and single values can be far off.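 The three strains are clinical Candida auris isolates from the CDC resistance isolate bank, from clades III, IV and I, grown in RPMI-1640 at 35°C. Growth is background-corrected OD600 relative to vehicle-only wells on the same plate; a hit meant over 50% inhibition in at least two strains plus a plate-corrected B-score above 0.1.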
# System: C. auris AR-387
# Experiment: growth relative to vehicle control (OD600 ratio) (fraction); higher = less inhibition
# Conditions: 10 µM; 24 h
row,Structure (SMILES),growth
1,Cc1cc(NS(=O)(=O)c2ccc(N)cc2)no1 [Sulfamethoxazole],0.92
2,NCc1ccc(S(N)(=O)=O)cc1 [Mafenide hydrochloride],1.45
3,O=c1[nH]cnc2c1ncn2[C@@H]1O[C@H](CO)[C@@H](O)[C@H]1O [Inosine],1.29
4,Cc1nc(-c2ccc(OCC(C)C)c(C#N)c2)sc1C(=O)O [Febuxostat],1.34
5,CCc1c2c(nc3ccc(OC(=O)N4CCC(N5CCCCC5)CC4)cc13)-c1cc3c(c(=O)n1C2)COC(=O)[C@]3(O)CC [Irinotecan HCl Trihydrate],0.68
6,C[N+](C)(C)CCOC(N)=O [Carbachol],0.98
7,NCCC(O)(P(=O)(O)O)P(=O)(O)O [Pamidronate Disodium],0.74
8,Clc1ccc(COC(Cn2ccnc2)c2ccc(Cl)cc2Cl)c(Cl)c1 (centres undefined) [Miconazole],0.6
9,CC(C)(C)c1nc(-c2cccc(NS(=O)(=O)c3c(F)cccc3F)c2F)c(-c2ccnc(N)n2)s1,1.11
10,CCCc1nc(C(C)(C)O)c(C(=O)OCc2oc(=O)oc2C)n1Cc1ccc(-c2ccccc2-c2nnn[nH]2)cc1 [Olmesartan Medoxomil],1.1
11,Cc1ccsc1C(=CCCN1CCC[C@@H](C(=O)O)C1)c1sccc1C [Tiagabine],1.16
12,NS(=O)(=O)c1cc2c(cc1Cl)N=C(CSCc1ccccc1)NS2(=O)=O [Benzthiazide],0.79
13,Cc1nc(C(=O)NCC(=O)O)c(O)c2ccc(Oc3ccccc3)cc12 [Roxadustat (FG-4592)],0.75
14,C=C1CC[C@H](O)C/C1=C/C=C1\CCC[C@]2(C)[C@@H]([C@H](C)CCCC(C)C)CC[C@@H]12 [Vitamin D3],0.98
15,CCOc1cc(N)c(Cl)cc1C(=O)NCC1CN(Cc2ccc(F)cc2)CCO1 (centres undefined) [Mosapride Citrate],0.65
16,CC(CN(C)C)CN1c2ccccc2CCc2ccccc21 (centres undefined) [Trimipramine Maleate],1.05
17,Cc1ccc(-c2cc(C(F)(F)F)nn2-c2ccc(S(N)(=O)=O)cc2)cc1 [Celecoxib],0.73
18,Cc1cc(C2CCCCC2)n(O)c(=O)c1 [Ciclopirox ethanolamine],-0.01
19,Cc1cnc(NC(=O)C2=C(O)c3ccccc3S(=O)(=O)N2C)s1 [Meloxicam],1.01
20,O=c1oc2c(O)c(O)cc3c(=O)oc4c(O)c(O)cc1c4c23 [Ellagic acid],1.19

row,Structure (SMILES),growth
1,Nc1c(CC(=O)O)cccc1C(=O)c1ccc(Br)cc1 [Bromfenac Sodium],1.02
2,O=C(O)c1cc(-c2ccccc2)nc2ccccc12 [Cinchophen],0.81
3,CC1(C)S[C@@H]2[C@H](NC(=O)COc3ccccc3)C(=O)N2[C@H]1C(=O)O [Penicillin V potassium salt],0.93
4,CN(C)C(=O)COC(=O)Cc1ccc(OC(=O)c2ccc(NC(=N)N)cc2)cc1 [Camostat Mesilate],1.18
5,CCOC(=O)c1ccc(N)cc1 [Benzocaine],1.13
6,COc1ccc2[nH]c([S+]([O-])Cc3ncc(C)c(OC)c3C)nc2c1 (centres undefined) [Omeprazole],1.05
7,Nc1nc(NC2CC2)c2ncn([C@H]3C=C[C@@H](CO)C3)c2n1 [Abacavir sulfate],0.77
8,CCc1ccc(Cc2ccc3c(c2)[C@]2(OC3)O[C@H](CO)[C@@H](O)[C@H](O)[C@H]2O)cc1 [Tofogliflozin(CSG 452)],1.05
9,CC(=O)OCC(=O)NCCCOc1cccc(CN2CCCCC2)c1 [Roxatidine Acetate HCl],0.58
10,CC(C)C[C@H](NC(=O)[C@@H](NC(=O)c1cccc(-c2ccccc2)n1)[C@@H](C)O)B(O)O,1.01
11,NC(=O)c1ncn([C@@H]2O[C@H](CO)[C@@H](O)[C@H]2O)c1O [Mizoribine],0.91
12,CCN(CC)CC(=O)Nc1c(C)cccc1C [Lidocaine hydrochloride],1.16
13,C=C1c2cccc(O)c2C(=O)C2=C(O)[C@]3(O)C(=O)C(C(N)=O)=C(O)[C@@H](N(C)C)[C@@H]3[C@@H](O)[C@H]12 [Methacycline HCl],1.31
14,CCCCN1CCCC[C@H]1C(=O)Nc1c(C)cccc1C [Levobupivacaine HCl],1.48
15,CCC[C@H](NC(=O)[C@@H]1[C@H]2CCC[C@H]2CN1C(=O)[C@@H](NC(=O)[C@@H](NC(=O)c1cnccn1)C1CCCCC1)C(C)(C)C)C(=O)C(=O)NC1CC1 [Telaprevir (VX-950)],0.98
16,C[C@H]1COc2c(N3CCN(C)CC3)c(F)cc3c(=O)c(C(=O)O)cn1c23 [Levofloxacin],1
17,CC(C)CN(C[C@@H](O)[C@H](Cc1ccccc1)NC(=O)O[C@H]1CO[C@H]2OCC[C@H]21)S(=O)(=O)c1ccc(N)cc1 [Darunavir Ethanolate],0.98
18,Oc1ccc(O)cc1 [Hydroquinone],1.18
19,CCCCCCCCCCCCCCCC[N+](C)(C)C [Cetrimonium Bromide (CTAB)],0.13

# Taken from above:
# `NCc1ccc(S(N)(=O)=O)cc1` [Mafenide hydrochloride] | growth: 1.45
# `Cc1ccsc1C(=CCCN1CCC[C@@H](C(=O)O)C1)c1sccc1C` [Tiagabine] | growth: 1.16
